The record followed here is PubChem BioAssay AID445 (National Center for Advancing Translational Sciences (NCATS), 2006).

Some of the results follow. Shown are side measurements of this screen, not its main read-out; they come without a call. Compounds called inactive in the main read-out are mostly missing here. Potencies come from curve fits of mixed quality, noted in brackets.

A short description of the test: IkB Signaling. The conditions noted are these: ABC-DLBCL IkBa-CBG/CBR dual luciferase ratio (green luciferase fused to IkBa over red control in OCI-Ly3 lymphoma cells), 4 h. The gist of the method: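 Curves were fitted separately to fusion (green), unfused (red) and ratio luminescence, then classed by r2, magnitude and activity. Cells: OCI-Ly3, 4 h compound plus doxycycline at 37C; 10 uM MG-132 defined full response.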
The mark [1] stands for this setting: measured here: control luc red channel unless noted.

Usually AC50 stands for the midpoint of the concentration-response curve, whichever way the signal moves. With `Cc1cccc(N2CCN(C(=O)c3nn(C)c4c3CS(=O)(=O)c3ccccc3-4)CC2C)c1` (stereo not given), the AC50 under setting [1] was 25.1 µM [falling, single point].
Consider `Cc1ccc(-n2c(=O)c3ccccc3n(CC(=O)Nc3cccc(C(F)(F)F)c3)c2=O)cc1`, for which the AC50 under setting [1] was 25.1 µM [falling, single point].
Turning to `O=C(Cn1c(=O)n(-c2ccccc2)c(=O)c2sc3ccccc3c21)NC1CCCC1`, the AC50 under setting [1] was 25.1 µM [falling, single point].
In the case of `COc1cccc(N2CCN(c3ncnc4onc(-c5ccc(Cl)cc5)c34)CC2)c1`, the AC50 under setting [1] is 3.16 µM [rising, partial curve].
Regarding `Cc1ccc(C)c(Nc2nn3c(=O)c4ccc(C(=O)NCc5cccs5)cc4nc3s2)c1`, under setting [1], the concentration at half-maximal activity (AC50) is 31.6 µM [falling, single point].
Turning to `O=C(CN1C(=O)CC(c2ccc(F)cc2)=Nc2ccccc21)NCc1ccccc1Cl`, the half-maximal activity concentration (AC50) under setting [1] is 25.1 µM [falling, single point].
On the same count and under the same terms, the figure for `CSc1ccc(CNC(=O)Cn2ccc3cc(S(=O)(=O)N4CCCC4)ccc32)cc1` is 15.8 µM [falling, partial curve]; for `O=C(Nc1ccc(-c2nc3ccccc3o2)cc1)C1CCCO1` (stereo not given) it is 7.94 µM [falling, partial curve].
Take `CN(C)c1ccc(C(=O)NCc2ccc3c(c2)CCN3C(=O)c2ccccc2)cc1`: the half-maximal activity concentration (AC50) under setting [1] is 0.00631 µM [rising, full curve, poor fit].
Same read-out and setting: the figure for `COc1ccc(-c2nnn(CC(=O)c3c[nH]c4ccccc34)n2)cc1OC` is 25.1 µM [falling, single point]; for `CN(C)c1ccc(CNC(=O)c2sc3ncccc3c2-n2cccc2)cc1` it is 25.1 µM [falling, single point].
The same measure, in the same setting: the figure for `Cc1ccnc(NC(=O)Nc2ccc(F)cc2)c1` is 7.94 µM [falling, partial curve].
On to `Cc1ccc2cc(CN(Cc3ccco3)C(=O)c3cccs3)c(=O)[nH]c2c1`, for which, under setting [1], the AC50 was 20 µM [falling, partial curve].
Same read-out and setting: the figure for `COc1cc(Cl)c(NS(=O)(=O)c2ccc(-c3coc(C)n3)cc2)c(OC)c1` is 3.16 µM [falling, partial curve].
`Cc1ccc(-c2cc(C(F)(F)F)c(C#N)c(SCC(=O)Nc3ccccc3F)n2)cc1`: under setting [1], the AC50 was 15.8 µM [falling, partial curve].
Still for that read-out and setting: the same measure for `COc1cccc(CNC(=O)CN2C(=O)CSc3ccc(S(=O)(=O)N4CCCC4)cc32)c1`: 39.8 µM [falling, single point]; for `CCCN(CCC)CCCNC(=O)c1cn(CC)c2ccc(S(=O)(=O)N3CCc4ccccc4C3)cc2c1=O`: 15.8 µM [falling, single point]; for `COCCCNc1nc2ccccc2nc1NS(=O)(=O)c1cccs1`: 7.94 µM [falling, partial curve].
Same read-out and setting: the figure for `Cc1ccc(Nc2c(-c3ccc(N4CCOCC4)cc3)nc3ncccn23)cc1C` is 20 µM [falling, single point]; for `CCOC(=O)c1ccc2c(c1)N(CC(=O)Nc1ccc(CC)cc1)C(=O)c1ccccc1S2` it is 1 µM [falling, full curve]; for `CCN(c1ccc(C)cc1C)S(=O)(=O)c1nnc(NC(=O)c2ccccc2OC)s1` it is 31.6 µM [falling, single point].
Same read-out and setting: the same measure for `CCOC(=O)c1oc2ccc(S(=O)(=O)n3nc(-c4cc(OCC)c(OCC)c(OCC)c4)cc3N)cc2c1C`: 15.8 µM [falling, partial curve]; for `CCOC(=O)c1ccc(NC(=O)CC2C(=O)N(c3ccccc3)C(=O)N2C2CCCCC2)cc1` (stereo not given): 25.1 µM [falling, partial curve]; for `O=C(CSc1oc(-c2ccco2)nc1S(=O)(=O)c1ccccc1)c1ccc(Cl)cc1`: 0.794 µM [falling, full curve, poor fit].
With `Cc1sc2nc3c4ccccc4c(NCc4ccco4)nn3c(=O)c2c1C`, the AC50 (measured here: IkB-luc green channel) was 6.31 µM [rising, single point] and the half-maximal activity concentration (AC50) (measured here: control luc red channel) is 39.8 µM [falling, single point].
In the case of `Cc1ccc(OCC(=O)Nc2ccc(S(=O)(=O)N(Cc3ccccc3)c3ccccc3)cc2)cc1`, the AC50 under setting [1] was 6.31 µM [rising, partial curve].
Same read-out and setting: the figure for `COC(=O)c1sccc1NC(=O)CSc1nnnn1-c1ccccc1F` is 12.6 µM [falling, partial curve]; for `CCOC(=O)c1c(-c2ccc(OC)c(OC)c2)csc1NC(=O)c1ccc(F)cc1` it is 6.31 µM [falling, partial curve].
Same read-out and setting: the figure for `COc1cccc(N2C(=O)CSC23C(=O)N(CC(=O)NCc2ccc(C)cc2)c2ccccc23)c1` (stereo not given) is 20 µM [falling, partial curve, poor fit]; for `CSC1=NC2(CCN(C(=O)NC3CCCCC3)CC2)N=C1c1ccc(C(C)(C)C)cc1` it is 12.6 µM [falling, partial curve]; for `CCc1ccc2occ(CC(=O)Nc3sc4c(c3C(=O)OC)CCC4)c2c1` it is 12.6 µM [falling, partial curve].
On to `O=C(NCS(=O)(=O)c1ccccc1)c1ccccc1`, for which, under setting [1], the AC50 was 20 µM [rising, partial curve] [measured here: IkB-luc green channel].
Still for that read-out and setting: the same measure for `CCC(=O)N1CCc2cc(Br)cc(S(=O)(=O)N(CC)Cc3ccccc3)c21`: 10 µM [falling, partial curve]; for `O=C(CSc1nnc(-c2ccccc2)n1Cc1ccco1)Nc1ccc2c(c1)OCCO2`: 20 µM [falling, partial curve].
Same read-out and setting: the same measure for `Cc1cccc(N2CCN(c3ncnc4onc(C)c34)CC2C)c1` (stereo not given): 3.16 µM [falling, full curve].
As to `Cc1nc(-c2cccc(F)c2)sc1CCNC(=O)C(=O)Nc1ccc2c(c1)OCO2`, under setting [1], the half-maximal activity concentration (AC50) is 31.6 µM [rising, partial curve, poor fit].
Same read-out and setting: the same measure for `COC(=O)CSc1ccc2nnc(CCNS(=O)(=O)c3ccccc3)n2n1`: 6.31 µM [rising, partial curve]; for `CCC(=O)Nc1cccc(-c2nc3ccccc3o2)c1`: 20 µM [falling, single point]; for `CCOC(=O)c1ccc(NC(=O)c2c(NCc3cc(OC)c(OC)cc3OC)sc3c2CCCC3)cc1`: 10 µM [falling, partial curve].
